According to paper PMC4944948:
No constants are given. Whether binding was seen depends on the method and setting. Binding seen in cells or lysates may run through a third protein. Some binding calls cover weakened binding; strength is not graded here. Sequences can lack the tags named with a protein.

The chains behind the UniProt entries cited, without tags or fusion partners.
UniProt Q13285: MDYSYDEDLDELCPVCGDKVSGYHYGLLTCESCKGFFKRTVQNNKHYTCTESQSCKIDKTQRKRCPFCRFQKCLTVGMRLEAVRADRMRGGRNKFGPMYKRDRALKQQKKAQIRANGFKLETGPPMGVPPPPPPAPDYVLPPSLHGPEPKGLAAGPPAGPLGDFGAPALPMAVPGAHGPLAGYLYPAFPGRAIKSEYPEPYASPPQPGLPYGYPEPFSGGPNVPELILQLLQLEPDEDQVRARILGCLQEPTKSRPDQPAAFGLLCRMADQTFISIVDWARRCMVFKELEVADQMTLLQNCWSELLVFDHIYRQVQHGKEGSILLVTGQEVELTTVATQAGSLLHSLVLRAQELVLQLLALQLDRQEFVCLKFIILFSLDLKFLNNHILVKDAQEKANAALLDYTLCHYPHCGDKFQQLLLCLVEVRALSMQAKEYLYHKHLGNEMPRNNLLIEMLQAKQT

Molecular target: FLAG-tagged steroidogenic factor-1 (SF-1) (UniProt Q13285)
Assay: co-IP; KGN cells co-transfected with FLAG-SF-1 and Myc-tagged WT or mutant FOXL2, 24 h; cell lysates immunoprecipitated with anti-FLAG antibody on protein G Dynabeads; immunoblot

B1: Myc-tagged wild type FOXL2 (protein, UniProt P58012 1-376)
chain: MMASYPEPEDAAGALLAPETGRTVKEPEGPPPSPGKGGGGGGGTAPEKPDPAQKPPYSYVALIAMAIRESAEKRLTLSGIYQYIIAKFPFYEKNKKGWQNSIRHNLSLNECFIKVPREGGGERKGNYWTLDPACEDMFEKGNYRRRRRMKRPFRPPPAHFQPGKGLFGAGGAAGGCGVAGAGADGYGYLAPPKYLQSGFLNNSWPLPQPPSPMPYASCQMAAAAAAAAAAAAAAGPGSPGAAAVVKGLAGPAASYGPYTRVQSMALPPGVVNSYNGLGGPPAAPPPPPHPHPHPHAHHLHAAAAPPPAPPHHGAAAPPPGQLSPASPATAAPPAPAPTSAPGLQFACARQPELAMMHCSYWDHDSKTGALHSRLDL
**Q.** B1 was tested. Which binding did it give?
**A.** binds
